# Data: PubChem BioAssay AID504467 (National Center for Advancing Translational Sciences (NCATS), 2011)
# The whole screen tested about 330,000 compounds, of which about 7,700 (2.3%) were called active. The shares of active, inactive and inconclusive entries below differ from those in the screen. Calls come from the whole dose curve; as a rule, active = well fitted inhibition curve with a large enough effect; inconclusive = small, poorly fitted or top-dose-only effect, or effect the other way; inactive = flat fitted curve, though single readings scatter. Potencies of inconclusive entries are doubtful fits and often do not repeat.
# Assay: qHTS screen for small molecules that inhibit ELG1-dependent DNA repair in human embryonic kidney (HEK293T) cells expressing luciferase-tagged ELG1; note: nearly all actives have a fitted effect of over 55% in size
# Details: HEK293T ELG1-luciferase reporter, luminescence, 16 h, DNA damage induced by 5-fluorouridine; activity change, negative = inhibition: at 46.1 µM (top of the series)
# Outline: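 Quantitative HTS, concentration-response format. 2,000 cells/well co-treated with 5-fluorouridine and compound, 16 hr in 5% CO2 at 37 °C; ONE-Glo luminescence read after 30 min.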
# % is set by controls: 0 for no effect and ±100 for the full control effect; potency is the fitted concentration of half-maximal effect.
Compound,"activity change, negative = inhibition",Potency
COc1ccc2cc(C3c4cc(OC)c(OC)cc4CCN3C(=O)c3ccco3)c(=O)[nH]c2c1 (stereo not given),inactive: -17.1%,–
CC(C)n1c(CN(C)Cc2ccccc2)nc2c1c(=O)n(C)c(=O)n2C,–,active: 4.11 µM
Cc1ccc(-c2cc(C(=O)Nc3ccc(S(=O)(=O)Nc4onc(C)c4C)cc3)c3ccccc3n2)cc1,inactive: -9.91%,–
COC(=O)c1[nH]c(=O)c2ccccc2c1OCc1ccccc1,inactive: -2.06%,–
O=C(CSc1nnc(-c2ccco2)o1)NC(=O)C1COc2ccccc2O1 (stereo not given),–,"inconclusive: 32.6 µM [activator, single point]"
Brc1ccccc1OCCCOc1cccc2cccnc12,–,"inconclusive: 11.2 µM [activator, partial curve, poor fit]"
Cn1ccsc1=NC(=O)c1cccc(C#N)c1,–,"inconclusive: 20.6 µM [activator, partial curve]"
COc1ccc(CSCCN)cc1Cl,–,"inconclusive: 16.4 µM [activator, single point]"
Clc1cccc(CSc2ncn(-c3ccccc3)n2)c1,–,"inconclusive: 23.1 µM [activator, partial curve]"
O=C1C=CN2CCCC2CC1 (stereo not given),inactive: 3.43%,–
CCn1nc(C(=O)OCC(=O)c2c[nH]c3ccccc23)c2ccccc2c1=O,–,"inconclusive: 29.1 µM [inhibitor, single point]"
CCC(CO)Oc1cc(NC(=O)c2ccc(N)cc2)c2ncn(C(C)C)c2c1 (stereo not given),–,"inconclusive: 2.31 µM [inhibitor, full curve]"
O=C(Cn1cnc2c(nnn2Cc2ccc(F)cc2)c1=O)N1CCCCC1,–,"inconclusive: 1.3 µM [inhibitor, single point]"
COc1ccc(C(=O)N[C@H]2CCCCNC2=O)cc1OC1CCN(C(C)C)CC1,inactive: -0.884%,–
Cc1cc(NC(=O)c2sccc2C)n(-c2nc3ccccc3[nH]2)n1,–,"inconclusive: 11.6 µM [inhibitor, partial curve, poor fit]"
Cc1ccc(C(=O)Nc2ccc(N3CCN(C(=O)c4ccco4)CC3)cc2)c(Cl)c1,–,active: 18.3 µM
CC(C)(C)c1ccc(C(=O)Nc2cnccn2)cc1,–,"inconclusive: 0.651 µM [activator, full curve]"
CCN1CCN=C1Nc1ccccc1,–,"inconclusive: 3.16 µM [activator, single point]"
Cn1c(SCC(=O)Nc2cccnc2)nnc1-c1ccccc1F,–,"inconclusive: 18.3 µM [inhibitor, single point]"
CCOC(=O)c1cnc2c(C#N)c(C)nn2c1-c1ccccc1,–,"inconclusive: 16.4 µM [inhibitor, partial curve]"
O=C(COc1ccccc1)N1CCN(c2ncnc3c2cnn3-c2ccccc2)CC1,–,"inconclusive: 35.5 µM [inhibitor, single point]"
Cc1ccc(C)c(Nc2cc(C)nc3ncnn23)c1,–,"inconclusive: 7.3 µM [activator, partial curve, poor fit]"
CC(Oc1ccc(Cl)cc1Cl)c1nc(-c2ccc(NC(=O)c3ccco3)cc2)no1 (stereo not given),–,"inconclusive: 6.51 µM [activator, partial curve]"

Compound,"activity change, negative = inhibition",Potency
O=C(NC1CC1)c1ccc2c(Cl)c3c(nc2c1)CCCC3,inactive: -14.4%,–
CN(C)CCCN(C(=O)c1ccc(S(=O)(=O)N2CCCCCC2)cc1)c1nc2c(F)cccc2s1,–,"inconclusive: 8.2 µM [inhibitor, partial curve, poor fit]"
COC(=O)c1[nH]c2cccc(OC)c2c1NC(=O)CCN1CCN(c2ccccc2OC)CC1,–,"inconclusive: 25.9 µM [inhibitor, single point]"
CCOc1cccc(/C=C/c2ccc3cccc(O)c3n2)c1OC,–,"inconclusive: 18.3 µM [activator, partial curve]"
CCCCCn1c(Sc2ccccc2)nc2c1c(=O)[nH]c(=O)n2C,inactive: 2.43%,–
O=[N+]([O-])c1ccc(Oc2cccc(F)c2)c2ccncc12,–,"inconclusive: 23.1 µM [inhibitor, partial curve, poor fit]"
CCc1cccc(C)c1NC(=S)N(CCN(C)C)C(C)c1ccco1 (stereo not given),inactive: -5.43%,–
O=C(Cc1ccccc1)Nc1ccc(NC(=O)c2ccccc2)nc1,–,"inconclusive: 20.6 µM [activator, partial curve]"
COc1cc(C2=NOC(C(=O)NC3CCCCC3)C2)cc(OC)c1OC (stereo not given),inactive: -2.92%,–
Cc1ccc(NC(=O)CSc2nc3nn(-c4ccccc4)c(=O)c-3c3n2CCCCC3)cc1F,–,"inconclusive: 25.9 µM [inhibitor, single point]"
C/C(=N\NC(=O)c1cccc([N+](=O)[O-])c1)c1ccco1,–,"inconclusive: 20.6 µM [activator, partial curve]"
Cc1cc(NC(=O)COC(=O)CCS(=O)(=O)c2ccc(C)c(C)c2)no1,inactive: -2.23%,–
Cc1ccc(C(=O)c2ccccc2C(=O)OCC(=O)Nc2ccc(SC(F)F)cc2)cc1,–,"inconclusive: 29.1 µM [inhibitor, single point]"
O=S(=O)(c1ccccc1)c1nnn2c1nc(NC1CCN(Cc3ccccc3)CC1)c1ccccc12,–,"inconclusive: 29.1 µM [inhibitor, single point]"
Cc1ccsc1C(=O)NNC(=O)COc1ccccc1Cl,–,"inconclusive: 25.9 µM [activator, single point]"
CCc1nnc(NC(=O)C2CC(=O)N(Cc3ccco3)C2)s1 (stereo not given),–,"inconclusive: 18.4 µM [activator, single point]"
COc1cc(OC)cc(-c2c(C#Cc3ccsc3)c3cc(-c4ccc(OC)nc4)ccc3n2C)c1,inactive: -5.87%,–
CCOC(=O)C1=C(CN2CCSCC2)NC(=O)NC1c1ccc2c(c1)OCO2 (stereo not given),inactive: 0.8%,–
O=C(Nc1cc(S(=O)(=O)N2CCOCC2)ccc1N1CCCC1)c1ccc2c(c1)S(=O)(=O)c1ccccc1C2=O,–,active: 10.3 µM
c1ccc(CO/N=C(\c2ccc(C3CC3)nc2)C2CC2)cc1,–,"inconclusive: 14.6 µM [activator, partial curve, poor fit]"
C=CCN(C(=O)Nc1ccc2oc(C)nc2c1)c1ccccc1,–,"inconclusive: 20.6 µM [activator, partial curve]"
Cc1nccn1CCCNCc1c(C(=O)N2CCCCCCC2)nc2ccc(Cl)cn12,inactive: -7.47%,–

# 3 structures out of the list, arranged by SMILES length, high to low:
Compound,"activity change, negative = inhibition",Potency
Cc1cc(NC(=O)COC(=O)CCS(=O)(=O)c2ccc(C)c(C)c2)no1,inactive: -2.23%,–
O=C(COc1ccccc1)N1CCN(c2ncnc3c2cnn3-c2ccccc2)CC1,–,"inconclusive: 35.5 µM [inhibitor, single point]"
Cn1c(SCC(=O)Nc2cccnc2)nnc1-c1ccccc1F,–,"inconclusive: 18.3 µM [inhibitor, single point]"
